Results deposited as PubChem BioAssay AID504764 (Drosophila RNAi Screening Center, 2011)
The screen tested about 22,000 reagents; this is an unselected part of those that have a named target and a result. Over the whole deposit, 403 (1.9%) got an active call. 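Unnormalised raw counts per well; ratio z-scores behind the hit calls and whether each hit raises or lowers signal are not deposited.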 A plus sign joins genes that one reagent is predicted to hit. Reagent sequences are not shown. Not given: the amount of reagent.

Purpose: 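Genes whose knock-down alters Notch-dependent transcription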 (primary screen)
Cell system: Drosophila Kc167 cells
Reagents: long dsRNA against Drosophila genes
Timing: about 5 days (4 days dsRNA, then 24 h after transfection)
Challenge: transfection of constitutively active membrane-tethered Notch lacking the extracellular domain, read 24 h later
Read-out: 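Firefly luciferase from an E(spl)m3 reporter with active Notch, plus control-promoter and uninduced reporter wells for normalisation; unnormalised counts, duplicate wells a and b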
Reading the numbers: induced reporter light, run 1, well a and induced reporter light, run 1, well b: higher = more light from the Notch target reporter with active Notch; control promoter light, run 1, well a and control promoter light, run 1, well b: higher = more light from the viral control promoter (cell number, transfection, viability); uninduced reporter light, run 1, well a: higher = more light from the Notch target reporter without active Notch
Rule for the call: 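Wells with low control signal or poorly matching duplicates excluded; duplicates averaged; per source plate, z beyond ±2 for induced/control log2 ratio or beyond ±1.8 for induced/uninduced marks a hit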
Calls: active = modifier hit (raised or lowered Notch signal); inactive = not a hit

| Target gene | dsRNA | induced reporter light, run 1, well a | induced reporter light, run 1, well b | control promoter light, run 1, well a | control promoter light, run 1, well b | uninduced reporter light, run 1, well a | call |
| --- | --- | --- | --- | --- | --- | --- | --- |
| Neb-cGP | DRSC17991 | 93570 | 82395 | 1.13e5 | 96710 | 5505 | inactive |
| CG9436 | DRSC05005 | 1.01e5 | 87335 | 68865 | 73515 | 5670 | inactive |
| CG32945 | DRSC12014 | 1.83e5 | 1.89e5 | 2.90e5 | 2.12e5 | 13465 | inactive |
| CG32369 | DRSC10042 | 1.38e5 | 1.20e5 | 1.73e5 | 1.37e5 | 19940 | inactive |
| CG32369 | DRSC10834 | 1.24e5 | 88500 | 70080 | 33480 | 9250 | inactive |
| Cyp6a14 (retired record) | DRSC07376 | 1.69e5 | 1.49e5 | 2.03e5 | 2.21e5 | 15805 | inactive |
| Skp2 + CG1103 | DRSC12160 | 1.29e5 | 1.37e5 | 1.08e5 | 89085 | 9030 | inactive |
| HP1c (Heterochromatin Protein 1c) | DRSC16166 | 1.61e5 | 1.62e5 | 2.43e5 | 2.20e5 | 14665 | inactive |
| CG9259 | DRSC03174 | 64725 | 29920 | 36545 | 57410 | 1800 | inactive |
| CG44001 + CG33995 | DRSC00853 | 1.32e5 | 1.00e5 | 1.35e5 | 1.70e5 | 8185 | inactive |
| CG44001 + CG33995 | DRSC02898 | 2.15e5 | 2.24e5 | 2.82e5 | 2.88e5 | 18570 | inactive |

Next part (2 carried over from the part before).
| Target gene | dsRNA | induced reporter light, run 1, well a | induced reporter light, run 1, well b | control promoter light, run 1, well a | control promoter light, run 1, well b | uninduced reporter light, run 1, well a | call |
| --- | --- | --- | --- | --- | --- | --- | --- |
| CG44001 + CG33995 | DRSC00853 | 1.32e5 | 1.00e5 | 1.35e5 | 1.70e5 | 8185 | inactive |
| CG44001 + CG33995 | DRSC02898 | 2.15e5 | 2.24e5 | 2.82e5 | 2.88e5 | 18570 | inactive |
| CG1075 (retired record) | DRSC12144 | 53325 | 61515 | 75180 | 52705 | 4180 | inactive |
| CG17929 | DRSC15291 | 2.46e5 | 2.26e5 | 2.79e5 | 2.68e5 | 20845 | inactive |
| Elba2 (Early boundary activity 2) | DRSC00731 | 1.64e5 | 2.12e5 | 1.85e5 | 1.82e5 | 17435 | inactive |
| Tom7 (Translocase of outer membrane 7) | DRSC05135 | 57840 | 59575 | 86810 | 91430 | 2935 | inactive |
| Tom7 (Translocase of outer membrane 7) | DRSC07113 | 1.58e5 | 1.86e5 | 2.30e5 | 2.04e5 | 14670 | inactive |
| adp (adipose) | DRSC06916 | 49350 | 46105 | 71950 | 76125 | 4488 | inactive |
| Med (Medea) | DRSC16737 | 23700 | 19065 | 24785 | 25695 | 4350 | inactive |
| CG9626 | DRSC16525 | 99935 | 1.05e5 | 76015 | 67040 | 9020 | inactive |
| smal (smoke alarm) | DRSC02318 | 1.81e5 | 1.44e5 | 1.87e5 | 1.30e5 | 9255 | inactive |
| smal (smoke alarm) | DRSC02319 | 2.21e5 | 1.77e5 | 1.87e5 | 1.44e5 | 12595 | inactive |
| smal (smoke alarm) | DRSC02320 | 72490 | 56260 | 64290 | 60275 | 3865 | inactive |
| smal (smoke alarm) | DRSC02504 | 1.67e5 | 1.26e5 | 1.55e5 | 1.76e5 | 10370 | inactive |
